Assay results reported in patent US7304168B2, “Photo-caged fluorescent molecules” (Board of Regents, University of Texas System, priority 2003, dated 2007).

System: Hela cells
Assay: Fluorescence imaging of Hela cells loaded with caged coumarin, UV uncaging
Format: cell-based
Details: 2 μM for 1 hour

What does the source list for “AM ester of 6-chloro-7-(2-nitrophenyl)ethoxy-coumarin 3-carboxamide [Compound 3]”?
fluorescence intensity of loaded cells prior to uncaging: no difference in fluorescence intensity of loaded cells from control cells; cellular blue fluorescence after UV photolysis (UV 330-380 nm): sudden jump of cellular blue fluorescence
